Laboratory results reported in PMC9208448.
Results are given in words; binding and its absence hold for the method and conditions named. In cells and extracts the contact can be indirect. Some results given as binding are weak or reduced against the parent protein; the word gives no strength.

Amino acid sequences for entries named in this document (tags omitted).
UniProt O54857: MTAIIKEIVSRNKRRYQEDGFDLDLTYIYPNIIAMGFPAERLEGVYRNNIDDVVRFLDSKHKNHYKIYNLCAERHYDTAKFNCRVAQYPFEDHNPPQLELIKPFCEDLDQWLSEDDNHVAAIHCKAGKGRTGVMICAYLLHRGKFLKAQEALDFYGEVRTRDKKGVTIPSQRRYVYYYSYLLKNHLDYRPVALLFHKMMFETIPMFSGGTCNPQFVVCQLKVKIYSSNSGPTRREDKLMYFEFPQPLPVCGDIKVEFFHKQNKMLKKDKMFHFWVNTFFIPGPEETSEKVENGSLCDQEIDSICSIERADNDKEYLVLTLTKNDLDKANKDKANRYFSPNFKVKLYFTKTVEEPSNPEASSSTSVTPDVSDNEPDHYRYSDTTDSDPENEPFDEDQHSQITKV

Target: PTEN (phosphatase tensin homolog) (rat (endogenous in NRCMs)) (UniProt O54857)
Assay: co-IP; whole-cell extracts of NRCMs after transfection or stimulation, incubated overnight with antibodies plus Protein A/G beads, washed five times, SDS-PAGE and Western blot; bait not stated

B1: Tripartite motif-containing 27 (protein, UniProt A0A0G2K8V4 1-513)
chain: MASGSVAESLQQETTCPVCLQYFVEPMMLDCGHNICCACLARCWGAAETNVSCPQCRETFPQRHMRPNRHLANVTQLVKQLRTERPSGPDGEMGVCEKHREPLKLYCEQDQMPICVVCDRSREHRGHSVLPLEEAVEGFKEQIQNRLDHLRRVKDLKKRRRAQGEQARAELLSLTQMEREKIVWEFEQLYHSLKEHEYRLLARLEELDLAIYNSINGAITQFSCNISHLSGLIAQLEEKQQQPTRELLQDIGDTLSRAERIRIPEPWITPPDLQEKIHIFAQKCLFLTESLKQFTEKMQSDMEKIQELREAQLYSVDVTLDPDTAYPSLILSDNLRQVRYSYLQQDLPDNPERFNLFPCVLGSPCFIAGRHYWEVEVGDKAKWTIGVCEDSVCRKGGVTSAPQNGFWAVSLWYGKEYWALTSPMTALPLRTPLQRVGIFLDYDAGEVSFYNVTERCHTFTFSHATFCGPVRPYFSLSYSGGKSAAPLIICPMSGIDGFSGHVGNHGHSMETSP
For B1, the binding was “binds”.
